Results as given in the supplement of paper PMC11732987, “Enantioselective OTUD7B fragment discovery through chemoproteomics screening and high-throughput optimisation” (Communications Chemistry, 2025).
The other results are listed elsewhere or left out. The data scatter; read single values as rough.

Tests used:
[1] = compound: ClCC(=O)N[C@@H]1CCCc2ccccc12; assay: log2 mean competition ratio of IA-DTB cysteine labelling (DMSO/compound) (log2 ratio); higher = stronger cysteine engagement by compound; details: treatment time: 4 h, cell line lysate: HEK293T
Experimental: (§1)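 IA-DTB competitive cysteine chemoproteomics in HEK293T RIPA lysate. Lysates were treated with compound 29 or 30 at 50 or 200 µM for 4 h, then IA-DTB (500 µM, 1 h), trypsin-digested, NeutrAvidin-enriched and analysed by diaPASEF. Competition ratio = intensity DMSO / intensity compound (n=4 treated, n=64 DMSO); binding: mean log2 CR ≥ 1 and p ≤ 0.05 plus QC filters. Target is the cysteine site.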

[2] = compound: ClCC(=O)N[C@H]1CCCc2ccccc12; assay: as above; details: treatment time: 4 h, cell line lysate: HEK293T
Experimental: as §1

Row | Target | log2 mean competition ratio ([1]; 50 µM) | log2 mean competition ratio ([1]; 200 µM) | log2 mean competition ratio ([2]; 50 µM) | log2 mean competition ratio ([2]; 200 µM)
1 | OBSL1 C13 (UniProt O75147) | 0.0504 | -0.375 | 0.503 | -0.0152
2 | ORC6 C82 (UniProt Q9Y5N6) | 0.0836 | -0.189 | -0.0838 | -0.172
3 | NUMA1 C1136 (UniProt Q14980) | -0.0467 | 0.0856 | -0.15 | -0.0788
4 | OSBPL10 C511 (UniProt Q9BXB5) | -0.27 | -0.227 | -0.109 | -0.296
5 | NUP205 C1216 (UniProt Q92621) | -0.154 | 0.105 | -0.476 | -0.0756
6 | NUDT12 C18 (UniProt Q9BQG2) | 0.0451 | 0.0746 | -0.271 | -0.146
7 | NUP214 C1003 | 0.014 | -0.115 | 0.0402 | -0.118
8 | NT5C3A C120 (UniProt Q9H0P0) | -0.218 | 0.385 | -0.0753 | 0.252
9 | NUP160 C605 (UniProt Q12769) | -0.087 | -0.25 | -0.176 | -0.146
10 | NUMB C58 (UniProt P49757) | 0.0858 | 0.301 | -0.0916 | 0.218
11 | NR0B1 C255 | 0.402 | 0.517 | -0.659 | 0.0653
12 | OLA1 C187 (UniProt Q9NTK5) | -0.0776 | 0.119 | -0.0273 | 0.135
13 | NSUN6 C291 (UniProt Q8TEA1) | 0.0323 | 0.156 | -0.146 | 0.0807
14 | NUP153 C404 (UniProt P49790) | 0.0627 | -0.00734 | 0.132 | 0.123
15 | NUBP2 C72 (UniProt Q9Y5Y2) | 0.275 | -0.0768 | 0.211 | 0.157
16 | NSUN5 C146 (UniProt Q96P11) | 0.217 | 0.125 | -0.192 | 0.106
17 | ORC3 C483 (UniProt Q9UBD5) | -0.255 | -0.277 | -0.0442 | -0.348
18 | NUP35 C255 (UniProt Q8NFH5) | 0.241 | 0.107 | -0.034 | 0.262
19 | NUP98 C1347 (UniProt P52948) | 0.0795 | -0.228 | -0.404 | -0.264
20 | NUP98 C1727 (UniProt P52948) | -0.133 | -0.152 | 0.166 | -0.195

Row | Target | log2 mean competition ratio ([1]; 50 µM) | log2 mean competition ratio ([1]; 200 µM) | log2 mean competition ratio ([2]; 50 µM) | log2 mean competition ratio ([2]; 200 µM)
21 | OSBPL10 C33 (UniProt Q9BXB5) | 0.16 | 0.276 | 0.226 | 0.183
22 | NXT2;NXT1 C15;(C14) | 0.0849 | 0.0185 | 0.121 | 0.000339
23 | NVL C309 (UniProt O15381) | 0.104 | 0.0778 | 0.0994 | 0.124
24 | ODF2 C118 (UniProt Q5BJF6) | -0.189 | 0.656 | -0.0745 | 0.426
25 | NR1D2 C374 | -0.00729 | -0.11 | -0.204 | -0.0833
26 | NUF2 C111 (UniProt Q9BZD4) | 0.086 | 0.744 | -0.32 | 0.841
27 | NOSIP C8 (UniProt Q9Y314) | 0.329 | -0.182 | 0.24 | -0.189
28 | NUP160 C135 (UniProt Q12769) | -0.0867 | -0.385 | 0.251 | -0.448
29 | OSBPL3 C114 (UniProt Q9H4L5) | -0.0208 | -0.0646 | -0.553 | -0.166
30 | NUP88 C155 (UniProt Q99567) | -0.307 | -0.513 | -0.383 | -0.684
31 | NSDHL C132 | -0.112 | -0.269 | 0.268 | -0.189
32 | NUFIP2 C234 (UniProt Q7Z417) | 0.0524 | -0.167 | -0.22 | -0.0131
33 | OGDH C395 (UniProt Q02218) | -0.121 | -0.121 | -0.269 | -0.0928
34 | NT5C2 C181 | 0.0589 | -0.214 | -0.169 | -0.0944
35 | OBSL1 C362 (UniProt O75147) | -0.235 | 0.25 | -0.295 | 0.316
36 | NSDHL C86 | -0.267 | -0.0998 | -0.204 | 0.0147
37 | NSD1 C944 (UniProt Q96L73) | 0.0196 | -0.157 | -0.201 | 0.0302
38 | OSBPL3 C337 (UniProt Q9H4L5) | 0.212 | -0.238 | -0.0826 | -0.236
39 | OGDH C331 (UniProt Q02218) | -0.335 | -0.356 | -0.178 | -0.165
40 | NVL C391 (UniProt O15381) | 0.0856 | 0.204 | -0.0851 | 0.192

Part of the list above, with tabs:
Row	Target	log2 mean competition ratio ([1]; 50 µM)	log2 mean competition ratio ([1]; 200 µM)	log2 mean competition ratio ([2]; 50 µM)	log2 mean competition ratio ([2]; 200 µM)
30	NUP88 C155 (UniProt Q99567)	-0.307	-0.513	-0.383	-0.684
34	NT5C2 C181	0.0589	-0.214	-0.169	-0.0944
39	OGDH C331 (UniProt Q02218)	-0.335	-0.356	-0.178	-0.165
40	NVL C391 (UniProt O15381)	0.0856	0.204	-0.0851	0.192

Later entries

Row | Target | log2 mean competition ratio ([1]; 50 µM) | log2 mean competition ratio ([1]; 200 µM) | log2 mean competition ratio ([2]; 50 µM) | log2 mean competition ratio ([2]; 200 µM)
41 | NPAT C551 (UniProt Q14207) | -0.107 | -0.1 | -0.0388 | -0.158
42 | OSGEP C277 (UniProt Q9NPF4) | 0.216 | -0.376 | 0.148 | -0.225
43 | OSBP C224 (UniProt P22059) | -0.316 | 0.137 | -0.306 | 0.078
44 | NSD1 C622 (UniProt Q96L73) | 0.0325 | 0.207 | -0.261 | 0.118
45 | NUP98 C1711 (UniProt P52948) | 0.0227 | 0.398 | -0.654 | 0.187
46 | NSUN2 C599 (UniProt Q08J23) | -0.078 | -0.0514 | 0.107 | 0.2
47 | NXT2;NXT1 C133;(C132) | -0.08 | 0.191 | 0.129 | 0.132
48 | NT5C3A C73 (UniProt Q9H0P0) | -0.156 | -0.278 | -0.427 | -0.144
49 | OSBPL11 C153 (UniProt Q9BXB4) | 0.235 | -0.378 | 0.154 | -0.541
50 | NYNRIN C1031 | -0.236 | -0.167 | -0.0717 | -0.204
51 | NUMA1 C735 (UniProt Q14980) | 0.0328 | -0.00953 | -0.36 | -0.00082
52 | OPA3 C164 (UniProt Q9H6K4) | -0.0636 | 0.0121 | 0.0108 | 0.0311
53 | OPA1 C375 (UniProt O60313) | 0.0457 | -0.113 | -0.094 | -0.106
54 | NSUN6 C415 (UniProt Q8TEA1) | 0.246 | 0.282 | 0.28 | 0.286
55 | NT5C3B C56 (UniProt Q969T7) | 0.168 | 0.0363 | -0.144 | 0.15
56 | NTAN1 C118 (UniProt Q96AB6) | -0.235 | -0.0738 | -0.0624 | -0.215
57 | NR3C2 C279 | -0.0465 | 0.149 | 0.0391 | -0.119
58 | NVL C484 (UniProt O15381) | 0.12 | 0.0974 | 0.44 | -0.0379
59 | OCIAD1 C38 | -0.491 | -0.281 | 0.16 | -0.0446
60 | OGFR C330 (UniProt Q9NZT2) | 0.0478 | -0.275 | 0.146 | -0.224
